Some of the results follow. These are raw signals, not scaled to a control.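 Primary screen: polymyxin B was added at a level permeabilizing Salmonella outer membranes while sparing inner membranes. DMSO wells, both with and without polymyxin B, established maximum growth. Plate-to-plate variation meant each plate was ranked on its own, and the lowest-OD600 compounds were selected as hits.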
Tested on: Salmonella enterica serovar Typhimurium SL1344
Experiment: bacterial growth OD600 after 18 h with compound and polymyxin B; higher = more bacterial growth (less inhibition)
Settings: 50 µM, Mueller-Hinton broth

Compound	bacterial growth OD600 (polymyxin B 1 µg/mL)	bacterial growth OD600 (polymyxin B 0.75 µg/mL)
CN(Cc1cnc2ccccn12)C(=O)c1cc(COc2ccc(F)cc2F)on1	0.891	
Cc1csc(CNC(=O)C2CCCN(C3CCN(C(C)C)CC3)C2)n1 (stereo unspecified)		0.881
CCCCNC(=O)N1CCCC(C(=O)c2cc(C)c(OC)c(C)c2)C1 (stereo unspecified)	0.928	
COc1ccc(CCN2C(=O)O[C@@H]3CN(Cc4ccc(C)s4)C[C@@H]32)cc1		0.269
CC(CC1(C)CC1)N1CCC(N2CCC(C(=O)NCc3cccnc3)CC2)CC1 (stereo unspecified)	1.21	
Cc1cc(C)n(CCNC(=O)CC2C(=O)NCCN2Cc2cccc3ccccc23)n1 (stereo unspecified)	0.964	
COc1ccc(-c2noc(CN3CCC(C(O)CC(C)C)CC3)n2)cc1 (stereo unspecified)	0.826	
COc1cc(CN2CCN(Cc3cnc(C)s3)CC2CCO)cc(OC)c1 (stereo unspecified)	0.95	
CC(NC(=O)c1ccc(OC2CCN(C(=O)C3CC3)CC2)cc1)c1ccc(Cl)cc1 (stereo unspecified)	1.18	
O=C(c1ccc(-c2ccccc2)cc1)C1CCCN(C(=O)CCC(F)(F)F)C1 (stereo unspecified)	0.859	
Cc1nc(CNCc2cccnc2Oc2ccccc2)c[nH]1	1.03	
COc1ccc(C(=O)N2CCN(C)C(=O)[C@@H]2C)cc1OC1CCN(C(C)=O)CC1	0.885	
CN(CCc1ccccn1)[C@@H]1CCN(C/C=C/c2ccccc2)C[C@H]1O		0.806
COc1ccccc1CCC(=O)Nc1cnn(CC(=O)NCc2cc(F)cc(C(F)(F)F)c2)c1		0.667
COc1cc(CN2CCCC(C(=O)c3cc(C)c(OC)c(C)c3)C2)cc2c1OCO2 (stereo unspecified)	0.855	
CN(C)CCN(CC1CCCN(Cc2ccccc2F)C1)C(=O)c1cc(C2CC2)on1 (stereo unspecified)	1.03	

Three entries from above, ordered by molar mass, smallest number first.
Compound	bacterial growth OD600 (polymyxin B 1 µg/mL)	bacterial growth OD600 (polymyxin B 0.75 µg/mL)
Cc1nc(CNCc2cccnc2Oc2ccccc2)c[nH]1	1.03	
CN(CCc1ccccn1)[C@@H]1CCN(C/C=C/c2ccccc2)C[C@H]1O		0.806
CN(Cc1cnc2ccccn12)C(=O)c1cc(COc2ccc(F)cc2F)on1	0.891	

(listing goes on)

Compound	bacterial growth OD600 (polymyxin B 1 µg/mL)	bacterial growth OD600 (polymyxin B 0.75 µg/mL)
Cc1nc(N2CCCC(C(=O)N3CCCCCC3)C2)nc2cc(S(C)(=O)=O)ccc12 (stereo unspecified)		0.724
CCn1cnnc1CN(C)c1ccc(-c2nc(C)no2)cn1	1.21	
CN1CCC(N(C)C(=O)CC(c2cccc(O)c2)c2cccc(Cl)c2)CC1 (stereo unspecified)		0.71
CC(Cn1cncn1)Nc1ccc(-c2nc(Cc3ccccc3)no2)cn1 (stereo unspecified)		0.794
COc1ccc(CC2=NOC(C(=O)NCCC3COc4ccccc4O3)C2)cc1 (stereo unspecified)		0.79
C=CCNC(=O)c1coc(COc2ccc3ccc(OC)cc3c2)n1	0.841	
COCCN(C)C(=O)c1ccc(OC2CCN(C3CCCC3)CC2)c(OC)c1		0.797
CCOC(=O)N1CCC(NC(=O)C2CC23CCN(C(=O)CCC(=O)c2ccc(F)cc2)CC3)CC1 (stereo unspecified)		0.83
CCn1ccnc1CN1CCC(CCC(=O)Nc2cccc(OC)c2)CC1	1.18	
COc1ccc(CN2CCC(CO)(CCCc3ccccc3)CC2)cc1OC	0.769	
Cn1ccnc1CN1CCOC(Cc2cccc(C(F)(F)F)c2)C1 (stereo unspecified)		0.754
O=C(NCCN1CCOCC1)c1ccc(N2CCC(NCc3cccc(C(F)(F)F)c3)CC2)cc1		0.827
CCC(NC(=O)C1CC(=O)c2sc(NC(=O)c3c(F)cccc3Cl)nc2C1)c1cccs1 (stereo unspecified)		0.729
O=C(NCc1ccccc1)N1C[C@H]2OC(=O)N(CCc3ccc(F)cc3)[C@H]2C1		0.801
O=C1N(Cc2cccc(Cl)c2)C[C@@H]2C[C@@H](c3cccn3-c3nccs3)N3CCC[C@@]123	0.013	
